Test: general procedure: solution-phase peptide synthesis; EDC·HCl, HOBt, i-Pr2NEt
Settings: coupling step

Substance: Boc‐Leu‐Gly‐Trp‐Gly‐Tyr(TIPS)‐Gly‐Phe‐OMe
- step yield: 28%
